## Screening data

Source: PubChem BioAssay AID504749 (NCATS, 2011).

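A panel of P. falciparum strains inside erythrocytes is exposed to compounds for three days, then a DNA-binding dye reports the amount of parasite DNA. Each compound was titrated across a series from about 0.000037 to 29 µM. The number is the fitted AC50, the concentration giving a half-maximal change in signal; a lower value means higher potency, whether the curve shows a decrease or an increase. Calls follow the curve class and fit quality: every row here is inconclusive, covering signal-raising curves and weak, poorly fitted, partial or highest-dose-only inhibition curves.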

Values are in nM. All entries here are filed as inconclusive. Only part of the assay is shown, chiefly results filed as inconclusive. A potency from a partial, single-point or poor curve is only a rough figure.

| Compound | condition | potency (nM) | remark |
|---|---|---|---|
| `NC(C(=O)O)C(O)c1ccc(O)c(O)c1` (centres unmarked) | CP250 | 17782 | inhibitor, single point |
| `NC(C(=O)O)C(O)c1ccc(O)c(O)c1` (centres unmarked) | DIV17 | 19011 | inhibitor, single point |
| `NC(C(=O)O)C(O)c1ccc(O)c(O)c1` (centres unmarked) | CP325 | 13459 | inhibitor, single point |
| `NC(C(=O)O)C(O)c1ccc(O)c(O)c1` (centres unmarked) | CP247 | 10000 | inhibitor, partial curve, poor fit |
| `NC(C(=O)O)C(O)c1ccc(O)c(O)c1` (centres unmarked) | C2A | 11220 | inhibitor, single point |
| `NC(C(=O)O)C(O)c1ccc(O)c(O)c1` (centres unmarked) | ATS95 | 17782 | inhibitor, single point |
| `NC(C(=O)O)C(O)c1ccc(O)c(O)c1` (centres unmarked) | HB3 | 10000 | inhibitor, single point |
| `NC(C(=O)O)C(O)c1ccc(O)c(O)c1` (centres unmarked) | AA1029 | 17782 | inhibitor, single point |
| `NC(C(=O)O)C(O)c1ccc(O)c(O)c1` (centres unmarked) | FAB9 | 17782 | inhibitor, single point |
| `NC(C(=O)O)C(O)c1ccc(O)c(O)c1` (centres unmarked) | CP252 | 17782 | inhibitor, single point |
| `NC(C(=O)O)C(O)c1ccc(O)c(O)c1` (centres unmarked) | CP238 | 15848 | inhibitor, single point |
| `NC(C(=O)O)C(O)c1ccc(O)c(O)c1` (centres unmarked) | DFO2036 | 17782 | inhibitor, single point |
| `NC(C(=O)O)C(O)c1ccc(O)c(O)c1` (centres unmarked) | CP201 | 16944 | inhibitor, single point |
| `NC(C(=O)O)C(O)c1ccc(O)c(O)c1` (centres unmarked) | TAB165 | 17782 | inhibitor, single point |
| `NC(C(=O)O)C(O)c1ccc(O)c(O)c1` (centres unmarked) | TAB113 | 17782 | inhibitor, single point |
| `NC(C(=O)O)C(O)c1ccc(O)c(O)c1` (centres unmarked) | CP335 | 19011 | inhibitor, single point |
| `NC(C(=O)O)C(O)c1ccc(O)c(O)c1` (centres unmarked) | Dd2 | 17782 | inhibitor, single point |
| `NC(C(=O)O)C(O)c1ccc(O)c(O)c1` (centres unmarked) | CP194 | 16944 | inhibitor, single point |
| `NC(C(=O)O)C(O)c1ccc(O)c(O)c1` (centres unmarked) | CP215 | 16944 | inhibitor, single point |
| `NC(C(=O)O)C(O)c1ccc(O)c(O)c1` (centres unmarked) | CP268 | 13459 | inhibitor, single point |
| `NC(C(=O)O)C(O)c1ccc(O)c(O)c1` (centres unmarked) | CP211 | 13459 | inhibitor, single point |
| `NC(C(=O)O)C(O)c1ccc(O)c(O)c1` (centres unmarked) | ATS189 | 15848 | inhibitor, single point |
| `NC(C(=O)O)C(O)c1ccc(O)c(O)c1` (centres unmarked) | CP269 | 19011 | inhibitor, single point |
| `NC(C(=O)O)C(O)c1ccc(O)c(O)c1` (centres unmarked) | CP237 | 14125 | inhibitor, single point |
| `NC(C(=O)O)C(O)c1ccc(O)c(O)c1` (centres unmarked) | CP305 | 15101 | inhibitor, single point |
| `NC(C(=O)O)C(O)c1ccc(O)c(O)c1` (centres unmarked) | SC27B | 17782 | inhibitor, single point |
| `NC(C(=O)O)C(O)c1ccc(O)c(O)c1` (centres unmarked) | CP265 | 11220 | inhibitor, single point |
| `NC(C(=O)O)C(O)c1ccc(O)c(O)c1` (centres unmarked) | CP286 | 17782 | inhibitor, single point |
| `NC(C(=O)O)C(O)c1ccc(O)c(O)c1` (centres unmarked) | CP256 | 17782 | inhibitor, single point |
| `NC(C(=O)O)C(O)c1ccc(O)c(O)c1` (centres unmarked) | CP329 | 16944 | inhibitor, single point |
| `NC(C(=O)O)C(O)c1ccc(O)c(O)c1` (centres unmarked) | CP291 | 19011 | inhibitor, single point |
| `NC(C(=O)O)C(O)c1ccc(O)c(O)c1` (centres unmarked) | TAB109 | 10000 | inhibitor, single point |
| `NC(C(=O)O)C(O)c1ccc(O)c(O)c1` (centres unmarked) | CP262 | 19011 | inhibitor, single point |
| `NC(C(=O)O)C(O)c1ccc(O)c(O)c1` (centres unmarked) | DIV30 | 11995 | inhibitor, single point |
| `NC(C(=O)O)C(O)c1ccc(O)c(O)c1` (centres unmarked) | CP185 | 10000 | inhibitor, single point |
| `NC(C(=O)O)C(O)c1ccc(O)c(O)c1` (centres unmarked) | GB4 | 16944 | inhibitor, single point |
| `NC(C(=O)O)C(O)c1ccc(O)c(O)c1` (centres unmarked) | CP217 | 17782 | inhibitor, single point |
| `NC(C(=O)O)C(O)c1ccc(O)c(O)c1` (centres unmarked) | CP266 | 19011 | inhibitor, partial curve, poor fit |
| `NC(C(=O)O)C(O)c1ccc(O)c(O)c1` (centres unmarked) | CP191 | 15848 | inhibitor, single point |
| `NC(C(=O)O)C(O)c1ccc(O)c(O)c1` (centres unmarked) | AS120 | 17782 | inhibitor, single point |
| `NC(C(=O)O)C(O)c1ccc(O)c(O)c1` (centres unmarked) | PAD | 10000 | inhibitor, single point |
| `NC(C(=O)O)C(O)c1ccc(O)c(O)c1` (centres unmarked) | CP260 | 17782 | inhibitor, single point |
| `NC(C(=O)O)C(O)c1ccc(O)c(O)c1` (centres unmarked) | CP192 | 13459 | inhibitor, partial curve, poor fit |
| `NC(C(=O)O)C(O)c1ccc(O)c(O)c1` (centres unmarked) | P94_40 | 10000 | inhibitor, single point |

Repeated from the top, 3 entries:

| Compound | condition | potency (nM) | remark |
|---|---|---|---|
| `NC(C(=O)O)C(O)c1ccc(O)c(O)c1` (centres unmarked) | CP250 | 17782 | inhibitor, single point |
| `NC(C(=O)O)C(O)c1ccc(O)c(O)c1` (centres unmarked) | DIV17 | 19011 | inhibitor, single point |
| `NC(C(=O)O)C(O)c1ccc(O)c(O)c1` (centres unmarked) | CP325 | 13459 | inhibitor, single point |